# Data as given in patent US9133259.
# Amino acid sequences for entries named in this document (tags omitted). A change or cut given only in a name is not applied to a line headed by its entry. Residues count along the entry.
# UniProt P49747: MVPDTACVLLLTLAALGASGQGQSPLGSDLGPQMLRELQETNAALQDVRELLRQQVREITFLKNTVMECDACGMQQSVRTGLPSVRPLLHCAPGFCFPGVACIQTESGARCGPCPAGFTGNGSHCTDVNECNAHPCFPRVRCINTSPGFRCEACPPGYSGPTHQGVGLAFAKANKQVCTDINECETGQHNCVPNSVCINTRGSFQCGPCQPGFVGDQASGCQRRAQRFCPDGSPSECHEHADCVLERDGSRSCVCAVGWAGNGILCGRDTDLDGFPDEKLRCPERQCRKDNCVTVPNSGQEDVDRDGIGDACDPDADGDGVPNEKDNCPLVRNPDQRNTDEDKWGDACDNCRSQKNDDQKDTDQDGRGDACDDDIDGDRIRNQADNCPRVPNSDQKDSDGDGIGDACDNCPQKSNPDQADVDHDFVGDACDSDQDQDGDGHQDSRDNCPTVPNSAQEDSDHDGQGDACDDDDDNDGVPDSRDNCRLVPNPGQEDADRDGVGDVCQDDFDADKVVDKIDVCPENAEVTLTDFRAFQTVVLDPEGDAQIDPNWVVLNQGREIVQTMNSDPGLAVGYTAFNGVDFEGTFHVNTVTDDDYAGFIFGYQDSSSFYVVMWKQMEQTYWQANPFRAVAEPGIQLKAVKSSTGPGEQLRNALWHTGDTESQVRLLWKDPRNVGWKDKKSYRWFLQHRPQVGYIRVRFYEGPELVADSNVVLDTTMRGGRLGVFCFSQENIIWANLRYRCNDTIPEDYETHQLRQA
# UniProt P01137, residues 279-390: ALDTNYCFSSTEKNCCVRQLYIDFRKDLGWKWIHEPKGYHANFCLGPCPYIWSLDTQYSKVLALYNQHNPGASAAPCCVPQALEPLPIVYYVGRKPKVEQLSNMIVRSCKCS
# UniProt P18075, residues 293-431: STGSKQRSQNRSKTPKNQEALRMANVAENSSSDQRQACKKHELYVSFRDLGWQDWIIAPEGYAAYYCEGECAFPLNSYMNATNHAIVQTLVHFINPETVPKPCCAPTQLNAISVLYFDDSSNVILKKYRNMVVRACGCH
# Results are given in words; binding and its absence hold for the method and conditions named. Some entries that bind do so weakly or less than the wild type.
# Columns and labels:
# [1] = molecular target: Recombinant human cartilage oligomeric matrix protein (rhCOMP), full-length, pentamer (human) (UniProt P49747); assay: dual polarization interferometry, COMP immobilized on a His-Tag chip, soluble TGF-β1, no manganese
# [2] = molecular target: Recombinant human cartilage oligomeric matrix protein (rhCOMP), full-length, pentamer (human) (UniProt P49747); assay: solid-phase ELISA, soluble TGF-β1 on immobilized COMP
# [3] = molecular target: Recombinant human cartilage oligomeric matrix protein (rhCOMP), full-length, pentamer (human) (UniProt P49747); assay: negative-stain electron microscopy, gold-labelled TGF-β1
# [4] = molecular target: Recombinant human cartilage oligomeric matrix protein (rhCOMP), full-length, pentamer (human) (UniProt P49747); assay: ELISA, COMP coated at 1 µg/ml
# [5] = molecular target: Recombinant human cartilage oligomeric matrix protein (rhCOMP), full-length, pentamer (human) (UniProt P49747); assay: dual polarization interferometry, COMP(FL) coated on a HisTag chip, pH 7.35, no manganese
# [6] = molecular target: Recombinant human cartilage oligomeric matrix protein (rhCOMP), full-length, pentamer (human) (UniProt P49747); assay: solid-phase ELISA, soluble BMP-7 on immobilized COMP
# [7] = molecular target: Human TGF-β1 (PeproTech, carrier-free) (human) (UniProt P01137); assay: solid-phase ELISA at pH 6.5 to 7.5
# [8] = molecular target: Human TGF-β1 (PeproTech, carrier-free) (human) (UniProt P01137); assay: ELISA, TGF-β1 coated at 1 µg/ml, 16 mM calcium chloride, pH 7.35
# [9] = molecular target: Human TGF-β1 (PeproTech, carrier-free) (human) (UniProt P01137); assay: solid-phase ELISA, soluble COMP on coated TGF-β1
# [10] = molecular target: Human TGF-β1 (PeproTech, carrier-free) (human) (UniProt P01137); assay: DPI and solid-phase ELISA
# [11] = molecular target: T1, Human BMP-4 (R&D Systems) (human) (UniProt P12644); assay: ELISA, BMP-4 coated at 0.5 µg/ml, 16 mM calcium chloride, pH 7.35
# T1 sequence (looked up): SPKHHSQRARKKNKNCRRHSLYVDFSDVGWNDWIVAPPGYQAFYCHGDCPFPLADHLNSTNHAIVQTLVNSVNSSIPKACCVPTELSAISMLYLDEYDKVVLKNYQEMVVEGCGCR
# [12] = molecular target: T2, Human BMP-2 (R&D Systems) (human) (UniProt P12643); assay: ELISA, BMP-2 coated at 0.5 µg/ml, 16 mM calcium chloride, pH 7.35
# T2 sequence (looked up): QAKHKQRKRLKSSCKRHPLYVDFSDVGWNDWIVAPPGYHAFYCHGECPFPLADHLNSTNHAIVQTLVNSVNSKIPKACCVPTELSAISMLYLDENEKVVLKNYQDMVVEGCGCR
# [13] = molecular target: Human TGF-β1 (PeproTech, carrier-free) (human) (UniProt P01137); assay: solid-phase ELISA, soluble COMP on immobilized TGF-β1, with Ca, Mg, Mn or EDTA
# [14] = molecular target: T1, Human BMP-4 (R&D Systems) (human); assay: solid-phase ELISA, soluble COMP on immobilized growth factor
# [15] = molecular target: Recombinant human BMP-7 (gift, Stryker Biotech) (human) (UniProt P18075); assay: as above
# [16] = molecular target: Human TGF-β1 (PeproTech, carrier-free) (human) (UniProt P01137); assay: as above
# [17] = molecular target: T2, Human BMP-2 (R&D Systems) (human); assay: as above
# [18] = molecular target: Human TGF-β1 (PeproTech, carrier-free) (human) (UniProt P01137); assay: solid-phase ELISA, soluble COMP on immobilized TGF-β1
# [19] = molecular target: T2, Human BMP-2 (R&D Systems) (human); assay: solid-phase ELISA
# [20] = molecular target: Recombinant human BMP-7 (gift, Stryker Biotech) (human) (UniProt P18075); assay: ELISA, BMP-7 coated at 1 µg/ml, 16 mM calcium chloride, pH 7.35
binding [1],binding [2],binding [3],binding [4],binding [5],binding [6],binding [7],binding [8],binding [9],binding [10],binding [11],binding [12],binding [13],binding [14],binding [15],binding [16],binding [17],binding [18],binding [19],binding [20],Substance
binds,binds,binds,binds,binds,–,–,–,–,–,–,–,–,–,–,–,–,–,–,–,"Human TGF-β1 (PeproTech, carrier-free) (from UniProt P01137 279-390) (ligand)"
–,–,–,binds,–,binds,–,–,–,–,–,–,–,–,–,–,–,–,–,–,"Recombinant human BMP-7 (gift, Stryker Biotech) (from UniProt P18075 293-431) (ligand)"
–,–,–,–,–,–,binds,binds,binds,binds,binds,binds,binds,binds,binds,binds,binds,binds,binds,binds,"Recombinant human cartilage oligomeric matrix protein (rhCOMP), full-length, pentamer (from UniProt P49747 23-757)"
